{"source": "PubChem BioAssay AID1053208, Peter MacCallum Cancer Centre – 2014", "purpose": "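Synthetic lethal interactions between gene loss and doxorubicin in osteosarcoma cells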 (primary screen)", "system": "mouse osteosarcoma cells, early-passage culture from an engineered mouse model of fibroblastic bone tumour", "reagents": "siRNA pool against mouse genes, 40 nM", "duration": "about 120 h (48 h before drug, then 72 h with drug)", "treatment": "doxorubicin 100 nM for 72 h, roughly 30-40% inhibitory dose", "measurement": "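Luminescent ATP signal taken as viability with or without 100 nM doxorubicin for 72 h; mean of two wells set against non-targeting siRNA and turned into robust z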", "scale": "viability z-score with doxorubicin: higher = more viable cells under doxorubicin; viability z-score without drug: higher = more viable cells with knock-down alone", "rule for the call": "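a pool counts as active when its viability z-score with doxorubicin is -2 or below and its z-score without drug lies between -2 and 2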", "note": "In all, the deposit lists about 17,000 reagents; below is an unselected part. Over the whole deposit, 788 (4.7%) got an active call. 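Calls rest on z-score classes alone; an extra cut-off of viability at most 70% of control was not applied to them.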 Further read-outs or replicates are left out here."}
{"Target gene": "Apon", "combined z-score class": "no change with or without drug", "viability z-score with doxorubicin": 0.67, "viability z-score without drug": 0.51, "activity call": "inactive"}
{"Target gene": "Mob2", "combined z-score class": "no change with or without drug", "viability z-score with doxorubicin": 0.22, "viability z-score without drug": 1.52, "activity call": "inactive"}
{"Target gene": "Ankrd49", "combined z-score class": "no change with or without drug", "viability z-score with doxorubicin": 0.22, "viability z-score without drug": -0.17, "activity call": "inactive"}
{"Target gene": "Tspyl1", "combined z-score class": "no change with or without drug", "viability z-score with doxorubicin": -0.34, "viability z-score without drug": -0.84, "activity call": "inactive"}
{"Target gene": "Tesk1", "combined z-score class": "no change with or without drug", "viability z-score with doxorubicin": -0.45, "viability z-score without drug": -1.35, "activity call": "inactive"}
{"Target gene": "Trappc11", "combined z-score class": "no change with or without drug", "viability z-score with doxorubicin": 0.9, "viability z-score without drug": 1.18, "activity call": "inactive"}
{"Target gene": "D6Ertd160e", "combined z-score class": "no change with or without drug", "viability z-score with doxorubicin": -0.67, "viability z-score without drug": 0.51, "activity call": "inactive"}
{"Target gene": "Mfsd1", "combined z-score class": "no change with or without drug", "viability z-score with doxorubicin": -1.24, "viability z-score without drug": 1.01, "activity call": "inactive"}
{"Target gene": "Ntrk3", "combined z-score class": "no change with or without drug", "viability z-score with doxorubicin": -0.11, "viability z-score without drug": 0.84, "activity call": "inactive"}
{"Target gene": "Cnnm3", "combined z-score class": "no change with or without drug", "viability z-score with doxorubicin": -1.12, "viability z-score without drug": -1.35, "activity call": "inactive"}
{"Target gene": "Cdk11b", "combined z-score class": "no change with or without drug", "viability z-score with doxorubicin": -0.45, "viability z-score without drug": -0.51, "activity call": "inactive"}
{"Target gene": "Lefty1", "combined z-score class": "high cell count with and without drug", "viability z-score with doxorubicin": 2.14, "viability z-score without drug": 2.19, "activity call": "inactive"}

Records listed so far whose gene name starts with C or c (2):
{"Target gene": "Cnnm3", "combined z-score class": "no change with or without drug", "viability z-score with doxorubicin": -1.12, "viability z-score without drug": -1.35, "activity call": "inactive"}
{"Target gene": "Cdk11b", "combined z-score class": "no change with or without drug", "viability z-score with doxorubicin": -0.45, "viability z-score without drug": -0.51, "activity call": "inactive"}
